Test results: US20230382924A1, “MODULATORS OF CYSTIC FIBROSIS TRANSMEMBRANE CONDUCTANCE REGULATOR” (VERTEX PHARMACEUTICALS INCORPORATED, priority 2020, published 2023)
Like-named read-outs stand apart in the source and are kept apart here. The match of structure and compound is tentative.

The chains behind the UniProt entries cited, without tags or fusion partners. A line that says so, or that is headed by a name, gives the form on record, which may keep a tag or linker.
UniProt P13569, with tags, fused parts or gaps DEL508-508: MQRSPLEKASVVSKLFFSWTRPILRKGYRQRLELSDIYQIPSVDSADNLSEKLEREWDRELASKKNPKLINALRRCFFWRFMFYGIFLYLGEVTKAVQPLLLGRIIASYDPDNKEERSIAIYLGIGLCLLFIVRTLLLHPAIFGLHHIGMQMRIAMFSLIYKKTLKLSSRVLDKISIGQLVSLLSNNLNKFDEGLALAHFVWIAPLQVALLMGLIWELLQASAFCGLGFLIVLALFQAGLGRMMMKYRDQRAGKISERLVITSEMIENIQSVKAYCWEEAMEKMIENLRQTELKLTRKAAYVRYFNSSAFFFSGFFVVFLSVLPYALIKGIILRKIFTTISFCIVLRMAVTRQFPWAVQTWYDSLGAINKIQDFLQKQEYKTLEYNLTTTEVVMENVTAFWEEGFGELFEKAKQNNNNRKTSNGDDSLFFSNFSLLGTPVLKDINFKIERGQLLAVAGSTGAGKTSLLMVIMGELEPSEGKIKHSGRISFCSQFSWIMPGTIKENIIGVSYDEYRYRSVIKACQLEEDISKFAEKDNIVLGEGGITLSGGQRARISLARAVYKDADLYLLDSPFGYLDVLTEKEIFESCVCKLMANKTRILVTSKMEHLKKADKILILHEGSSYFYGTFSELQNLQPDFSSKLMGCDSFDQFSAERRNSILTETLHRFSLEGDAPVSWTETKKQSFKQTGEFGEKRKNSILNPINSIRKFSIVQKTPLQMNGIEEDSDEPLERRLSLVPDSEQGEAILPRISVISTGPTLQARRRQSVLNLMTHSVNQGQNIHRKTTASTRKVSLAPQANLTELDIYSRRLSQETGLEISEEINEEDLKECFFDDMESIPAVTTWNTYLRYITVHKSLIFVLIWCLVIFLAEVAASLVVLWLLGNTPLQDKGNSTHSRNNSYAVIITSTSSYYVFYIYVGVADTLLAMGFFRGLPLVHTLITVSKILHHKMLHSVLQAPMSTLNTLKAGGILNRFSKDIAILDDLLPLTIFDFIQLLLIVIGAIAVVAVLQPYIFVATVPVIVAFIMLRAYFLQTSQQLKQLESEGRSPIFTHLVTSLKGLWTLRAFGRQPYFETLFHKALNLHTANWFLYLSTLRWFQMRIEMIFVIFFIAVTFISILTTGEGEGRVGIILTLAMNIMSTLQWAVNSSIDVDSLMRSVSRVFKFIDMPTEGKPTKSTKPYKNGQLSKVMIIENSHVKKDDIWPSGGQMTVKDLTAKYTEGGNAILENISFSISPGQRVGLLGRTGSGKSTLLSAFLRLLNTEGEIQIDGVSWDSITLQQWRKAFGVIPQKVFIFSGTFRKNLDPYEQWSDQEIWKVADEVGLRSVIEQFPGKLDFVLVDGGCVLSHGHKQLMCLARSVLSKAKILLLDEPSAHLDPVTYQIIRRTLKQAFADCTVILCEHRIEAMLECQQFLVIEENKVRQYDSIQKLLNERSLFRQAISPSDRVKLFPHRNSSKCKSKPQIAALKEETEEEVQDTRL

Biological target: CFTR (Homo sapiens, UniProt P13569)
Experiment: Membrane Potential Dye, Enteroid Assay A
Type: cell-based
Settings: for EC50: read-out: Ent. A EC50

Cc1cccc(C)c1-c1cc2nc(n1)NS(=O)(=O)c1cccc(c1)C(=O)N[C@H](CCc1ccccc1)CO2
Ent. A Max Activity (Enteroid Assay A): +++ (+++ is >600%)
EC50 (Enteroid Assay A): 1000 to 3000 nM

Cc1cccc(C)c1-c1cc2nc(n1)NS(=O)(=O)c1cccc(c1)C(=O)NCC1(CCN(CC3CCN(C(=O)OC(C)(C)C)C3)CC1)CO2 (stereo not drawn)
Ent. A Max Activity (Enteroid Assay A): ++ (++ is 30-60%)
EC50 (Enteroid Assay A): 3000 to 30000 nM

CCC1CCC(c2cc3nc(n2)NS(=O)(=O)c2cccc(c2)C(=O)N[C@H](CC(C)C)CO3)CC1 (stereo partly drawn) [Compound 310]
Ent. A Max Activity (Table 8): ++ (++ is 306%)
EC50 (Table 8): < 1000 nM
